No constants are given. Whether binding was seen depends on the method and setting. In cells and extracts the contact can be indirect. Binding can be weak; no strength is given. Sequences can lack the tags named with a protein.
Target: T1, YFP-tagged WDHD1 (human) (UniProt O75717)
T1 sequence: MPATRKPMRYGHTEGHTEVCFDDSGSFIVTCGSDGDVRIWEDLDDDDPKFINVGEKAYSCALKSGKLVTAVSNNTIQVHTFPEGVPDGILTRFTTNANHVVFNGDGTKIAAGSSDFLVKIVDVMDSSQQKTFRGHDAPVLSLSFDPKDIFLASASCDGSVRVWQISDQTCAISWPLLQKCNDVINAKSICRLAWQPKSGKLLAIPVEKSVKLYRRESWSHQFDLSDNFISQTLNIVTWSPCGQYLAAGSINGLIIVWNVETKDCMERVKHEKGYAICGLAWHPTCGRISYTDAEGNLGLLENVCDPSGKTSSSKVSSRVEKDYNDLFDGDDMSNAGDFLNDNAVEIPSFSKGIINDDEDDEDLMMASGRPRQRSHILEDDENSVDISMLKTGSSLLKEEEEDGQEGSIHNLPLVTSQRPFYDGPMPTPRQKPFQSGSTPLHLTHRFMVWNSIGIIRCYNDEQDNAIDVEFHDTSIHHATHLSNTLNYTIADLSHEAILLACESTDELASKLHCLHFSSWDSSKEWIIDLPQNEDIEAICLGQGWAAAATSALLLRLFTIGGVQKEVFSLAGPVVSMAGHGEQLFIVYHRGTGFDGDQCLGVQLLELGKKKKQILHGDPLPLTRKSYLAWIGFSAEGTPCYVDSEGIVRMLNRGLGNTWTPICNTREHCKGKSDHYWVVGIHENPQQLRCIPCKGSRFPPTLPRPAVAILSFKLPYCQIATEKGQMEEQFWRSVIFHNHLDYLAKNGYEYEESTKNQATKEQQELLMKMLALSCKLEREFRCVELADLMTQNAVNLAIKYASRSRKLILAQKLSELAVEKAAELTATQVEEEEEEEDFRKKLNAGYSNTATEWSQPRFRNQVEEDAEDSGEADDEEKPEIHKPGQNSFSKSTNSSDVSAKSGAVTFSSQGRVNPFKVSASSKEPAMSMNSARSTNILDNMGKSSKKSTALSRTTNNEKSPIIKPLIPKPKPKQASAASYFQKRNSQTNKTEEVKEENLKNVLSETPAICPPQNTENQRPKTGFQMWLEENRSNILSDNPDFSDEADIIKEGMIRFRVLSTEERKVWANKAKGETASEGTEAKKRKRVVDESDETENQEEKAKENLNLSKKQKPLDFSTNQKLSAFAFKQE
Experiment: co-IP; YFP-tagged WDHD1 captured on GFP-trap beads from whole cell lysate with full-length DDX11 or DDX11 fragments; Western blot

binding: binds
Substance: C-terminal part of DDX11 (human) (domain or fragment)
